In patent publication US20250171459A1, “2-METHYL-4',5'-DIHYDROSPIRO[PIPERIDINE-4,7'-THIENO[2,3-C]PYRAN] DERIVATIVES AS INHIBITORS OF APOL1 AND METHODS OF USING SAME” (Vertex Pharmaceuticals Incorporated, priority 2022, published 2025) one finds IC50 data, which are given here for ten molecules.

The chains behind the UniProt entries cited, without tags or fusion partners.
UniProt O14791, whole entry S342G/I384M: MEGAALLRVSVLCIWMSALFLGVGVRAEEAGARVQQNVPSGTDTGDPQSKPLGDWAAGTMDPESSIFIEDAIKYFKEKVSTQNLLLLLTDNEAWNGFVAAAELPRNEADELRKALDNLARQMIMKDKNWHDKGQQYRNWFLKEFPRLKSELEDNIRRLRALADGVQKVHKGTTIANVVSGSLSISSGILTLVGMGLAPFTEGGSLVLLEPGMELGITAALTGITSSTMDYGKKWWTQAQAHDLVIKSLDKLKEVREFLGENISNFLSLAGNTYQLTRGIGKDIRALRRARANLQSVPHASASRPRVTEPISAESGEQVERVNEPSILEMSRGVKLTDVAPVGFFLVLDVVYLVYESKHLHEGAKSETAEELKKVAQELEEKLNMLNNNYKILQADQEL

The match of structure and compound is tentative.

The assay has as its target APOL1 (Homo sapiens, UniProt O14791). Briefly: MultiTox-Fluor Multiplex Cytotoxicity Assay in tet-inducible APOL1 T-REx-HEK293 cells (cell rescue, ratio of dead to live cells). To be noted: read-out: IP50 (i.e., IC50 for cell proliferation); tet-inducible transgenic APOL1 T-REx-HEK293 cell lines, 50 ng/mL tet, 24 hours.
With `CCc1cc2c(s1)CCO[C@@]21CCN(Cc2cn(C(C)c3nncn3CCCOC)nn2)[C@@H](C)C1` (stereo partly shown), the IC50 was in the range of 100 to 500 nM.
The result for `CCC1Cc2sc(Cl)cc2C2(CCN(Cc3cnn(C)c3)[C@@H](C)C2)O1` (stereo partly shown) [Compound 533] reads 100 to 500 nM; that for `CNS(=O)(=O)CCn1cc(CN2CCC3(CC2)OCC(C)c2sc(Cl)cc23)cn1` (stereo not shown), 100 to 500 nM.
The result for `C[C@H]1C[C@@]2(CCN1Cc1ccc(S(C)(=O)=O)cc1)OCCc1c2sc(Cl)c1CO` reads 100 to 500 nM; that for `Cc1cc2c(s1)[C@]1(CCN(Cc3cnn(CCS(C)(=O)=O)c3)[C@H](C)C1)OCC2`, 100 to 500 nM.
With `COc1cnc(CN2CC[C@]3(C[C@@H]2C)OCCc2cc(Cl)sc23)cn1` the figure was 100 to 500 nM; with `CCc1ncc(CN2CC[C@]3(C[C@@H]2C)OC[C@H](O)c2cc(Cl)sc23)cn1`, 100 to 500 nM.
`CCc1cc2c(s1)CCOC21CCN(Cc2ccc(NS(=O)(=O)CCCOC)cc2)CC1`: the IC50 was in the range of 100 to 500 nM.
The result for `C[C@H]1C[C@@]2(CCN1Cc1ccc(OCC(=O)N3CCOCC3)cc1)OCCc1c2sc(Cl)c1CO` reads below 100 nM; that for `C[C@H]1C[C@@]2(CCN1Cc1ccc(O)nc1)OCCc1c2sc(Cl)c1CO`, below 100 nM.
